Literature values in patent US20220087979A1, “TREATMENT OF MALIGNANCIES” (Board of Trustees of Michigan State University, priority 2017, published 2022).
At least one compound was matched to its structure with a doubt left.

Tested on: glioblastoma cells such as U87-MG cells
Settings: high concentrations (>0.1 mM); Atif et al. 2015; cited from earlier work

Cn1nnc2c(C(N)=O)ncn2c1=O [TMZ, temozolomide]
efficacy on glioblastoma cells: 20-30%
